For this test, the target named is dopamine D1 receptor (mouse (endogenous in brain slices of mice)) (UniProt Q61616). Nature of the test: proximity ligation; blocking of the endogenous D1R/GluN1 PLA signal in cultured MSN by the cell-permeable peptide (5 uM, 1 h before and during co-stimulation); only the binder purified.

Sequences of proteins named here, by UniProt entry; tags and fusion partners are left off.
UniProt Q61616: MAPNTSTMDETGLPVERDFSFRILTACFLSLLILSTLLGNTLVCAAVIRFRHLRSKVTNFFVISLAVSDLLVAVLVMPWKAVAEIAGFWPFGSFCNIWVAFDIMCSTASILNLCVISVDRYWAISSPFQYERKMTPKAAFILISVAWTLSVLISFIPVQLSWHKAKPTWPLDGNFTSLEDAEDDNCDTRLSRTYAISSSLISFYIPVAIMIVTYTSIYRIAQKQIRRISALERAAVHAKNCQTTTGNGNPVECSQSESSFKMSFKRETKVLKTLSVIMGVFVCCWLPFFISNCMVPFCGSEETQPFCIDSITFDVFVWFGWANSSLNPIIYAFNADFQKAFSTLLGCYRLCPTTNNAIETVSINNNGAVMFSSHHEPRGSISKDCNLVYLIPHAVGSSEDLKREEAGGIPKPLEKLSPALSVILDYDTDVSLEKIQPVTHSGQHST

No constants are given. Whether binding was seen depends on the method and setting. In cells and extracts the contact can be indirect. Some results given as binding are weak or reduced against the parent protein; the word gives no strength.

Regarding GRKKRRQRRRPPDRKSGRAEPDPKKKATFRAITSTLASSFKRRRSSKDT [TAT-GluN1C1], the binding entry is recorded as “binds”.

The values above are taken from paper PMC4255088.
